# Laboratory results published in the supplement of paper PMC8728848.
# Some of the results follow.
# B1: PX14343E-bfa-545-24-545 (Bacteroides fragilis) (protein)
# chain: LDRYPQEELSDGSFWKTPDDANKVVSDLYGYLSTWDQDNDINSDNATMGIKWAAGNVSKGIYDPADQGWSGDYANVRQCNLILSKIDEIPDYPEADKTKALGQVYFFRAYIYFNLIRSFGDVPYIDKPLDLKDMEGITRMPRAEVYEKIMADFDKAIAALPTEWGASDYGRVTKGAAMAMKARAALYYGNWDTAATEAKNVMDLGLYELYDKDNTGKYAELFWEKADGCDEFILVTQFNYPDKTHYLMGWECFPTKGWGGMNPTQSLVDAFEDSEGAPISKSKIYDPTDPFKNRDPRLEVDILHDGEEMYGVTIKVAPLASSGSTGINQHNDATETGYYGQKWLDPSLDPLSDGWNMGKDWVHIRYAEVLLTYAEAKNELQGLDPEAFDAVNQVRRRVGMPELQNTDPSKPTYCATQDDLRQRIRNEWRVEFCLEGGKRMWDIRRWGIAKDVLNAPFEGLKYKIVDNPNDPDKKVDGGKMCILYQGDPIILSGSRYSDNNYLFPVPQSEIDLNPALTQNPGY
# Legend:
# Experiment in all cases: glycan array binding signal (z-score within array); higher = stronger binding
# Conditions in all cases: glycan notation: IUPAC condensed, linker removed
# [1] = biological target: Neu5Ac(a2-3)Gal(b1-4)GlcNAc(b1-6)GalNAc
# How it was run: (§1)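 Negative Z-scores can be read as non-binding. The Z-score is calculated within each array and then averaged across arrays of one protein sequence at different concentrations or buffers and across linkers. Arrays, 3228 in all, were curated from the Consortium for Functional Glycomics database and kept only where the protein sequence was available.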
# [2] = biological target: Neu5Ac(a2-3)Gal(b1-4)GlcNAc(b1-6)[Gal(b1-3)]GalNAc
# How it was run: as §1
# [3] = biological target: Neu5Ac(a2-3)Gal(b1-4)GlcNAc(b1-6)[Neu5Ac(a2-3)Gal(b1-3)]GalNAc
# How it was run: as §1
# [4] = biological target: Neu5Ac(a2-3)Gal(b1-4)GlcNAc6S
# How it was run: as §1
# [5] = biological target: Neu5Ac(a2-3)Gal(b1-4)[Fuc(a1-3)]GlcNAc
# How it was run: as §1
# [6] = biological target: Neu5Ac(a2-3)Gal(b1-4)[Fuc(a1-3)]GlcNAc(b1-2)Man
# How it was run: as §1
# [7] = biological target: Neu5Ac(a2-3)Gal(b1-4)[Fuc(a1-3)]GlcNAc(b1-3)Gal
# How it was run: as §1
# [8] = biological target: Neu5Ac(a2-3)Gal(b1-4)[Fuc(a1-3)]GlcNAc(b1-3)Gal(b1-4)GlcNAc
# How it was run: as §1
# [9] = biological target: Neu5Ac(a2-3)Gal(b1-4)[Fuc(a1-3)]GlcNAc(b1-3)Gal(b1-4)[Fuc(a1-3)]GlcNAc(b1-3)Gal(b1-4)[Fuc(a1-3)]GlcNAc
# How it was run: as §1
# [10] = biological target: Neu5Ac(a2-3)Gal(b1-4)[Fuc(a1-3)]GlcNAc(b1-3)GalNAc
# How it was run: as §1
# [11] = biological target: Neu5Ac(a2-3)Gal(b1-4)[Fuc(a1-3)]GlcNAc(b1-6)[Gal(b1-3)]GalNAc
# How it was run: as §1
# [12] = biological target: Neu5Ac(a2-3)Gal(b1-4)[Fuc(a1-3)]GlcNAc(b1-6)[Neu5Ac(a2-3)Gal(b1-3)]GalNAc
# How it was run: as §1
# [13] = biological target: Neu5Ac(a2-3)Gal(b1-4)[Fuc(a1-3)]GlcNAc6S
# How it was run: as §1
# [14] = biological target: Neu5Ac(a2-3)Gal6S(b1-4)GlcNAc
# How it was run: as §1
# [15] = biological target: Neu5Ac(a2-3)Gal6S(b1-4)[Fuc(a1-3)]GlcNAc
# How it was run: as §1
# [16] = biological target: Neu5Ac(a2-3)GalNAc
# How it was run: as §1
# [17] = biological target: Neu5Ac(a2-3)GalNAc(b1-4)GlcNAc
# How it was run: as §1
# [18] = biological target: Neu5Ac(a2-3)[GalNAc(b1-4)]Gal(b1-4)Glc
# How it was run: as §1
# [19] = biological target: Neu5Ac(a2-3)[GalNAc(b1-4)]Gal(b1-4)GlcNAc
# How it was run: as §1
# [20] = biological target: Neu5Ac(a2-3)[GalNAc(b1-4)]Gal(b1-4)GlcNAc(b1-3)GalNAc
# How it was run: as §1
# [21] = biological target: Neu5Ac(a2-3)[Neu5Ac(a2-6)]GalNAc
# How it was run: as §1
# [22] = biological target: Neu5Ac(a2-6)Gal
# How it was run: as §1
# [23] = biological target: Neu5Ac(a2-6)Gal(b1-3)GlcNAc(b1-3)[Gal(b1-4)GlcNAc(b1-6)]Gal(b1-4)Glc
# How it was run: as §1
# [24] = biological target: Neu5Ac(a2-6)Gal(b1-4)Glc
# How it was run: as §1
# [25] = biological target: Neu5Ac(a2-6)Gal(b1-4)GlcNAc
# How it was run: as §1
# [26] = biological target: Neu5Ac(a2-6)Gal(b1-4)GlcNAc(b1-2)Man
# How it was run: as §1
# [27] = biological target: Neu5Ac(a2-6)Gal(b1-4)GlcNAc(b1-2)Man(a1-3)Man(b1-4)GlcNAc(b1-4)GlcNAc
# How it was run: as §1
# [28] = biological target: Neu5Ac(a2-6)Gal(b1-4)GlcNAc(b1-2)Man(a1-3)[Gal(b1-4)GlcNAc(b1-2)Man(a1-6)]Man(b1-4)GlcNAc(b1-4)GlcNAc
# How it was run: as §1
# [29] = biological target: Neu5Ac(a2-6)Gal(b1-4)GlcNAc(b1-2)Man(a1-3)[GlcNAc(b1-2)Man(a1-6)]Man(b1-4)GlcNAc(b1-4)GlcNAc
# How it was run: as §1
# [30] = biological target: Neu5Ac(a2-6)Gal(b1-4)GlcNAc(b1-2)Man(a1-3)[GlcNAc(b1-4)][Neu5Ac(a2-6)Gal(b1-4)GlcNAc(b1-2)Man(a1-6)]Man(b1-4)GlcNAc(b1-4)GlcNAc
# How it was run: as §1
# [31] = biological target: Neu5Ac(a2-6)Gal(b1-4)GlcNAc(b1-2)Man(a1-3)[Man(a1-6)]Man(b1-4)GlcNAc(b1-4)GlcNAc
# How it was run: as §1
binder,measurement,setting,value
B1,glycan array binding signal (z-score),[1],-0.59
same,glycan array binding signal (z-score),[2],-0.893
same,glycan array binding signal (z-score),[3],-0.773
same,glycan array binding signal (z-score),[4],-1.34
same,glycan array binding signal (z-score),[5],-0.12
same,glycan array binding signal (z-score),[6],-0.594
same,glycan array binding signal (z-score),[7],-0.954
same,glycan array binding signal (z-score),[8],-0.873
same,glycan array binding signal (z-score),[9],0.318
same,glycan array binding signal (z-score),[10],0.401
same,glycan array binding signal (z-score),[11],1.19
same,glycan array binding signal (z-score),[12],0.423
same,glycan array binding signal (z-score),[13],-0.633
same,glycan array binding signal (z-score),[14],-0.883
same,glycan array binding signal (z-score),[15],-0.423
same,glycan array binding signal (z-score),[16],-0.857
same,glycan array binding signal (z-score),[17],-0.015
same,glycan array binding signal (z-score),[18],-0.256
same,glycan array binding signal (z-score),[19],-0.263
same,glycan array binding signal (z-score),[20],0.285
same,glycan array binding signal (z-score),[21],-0.87
same,glycan array binding signal (z-score),[22],1.24
same,glycan array binding signal (z-score),[23],-0.197
same,glycan array binding signal (z-score),[24],-0.096
same,glycan array binding signal (z-score),[25],0.37
same,glycan array binding signal (z-score),[26],-0.34
same,glycan array binding signal (z-score),[27],-0.273
same,glycan array binding signal (z-score),[28],1.11
same,glycan array binding signal (z-score),[29],-0.141
same,glycan array binding signal (z-score),[30],-0.087
same,glycan array binding signal (z-score),[31],-0.928

# Shown with tabs: part of the list above.
binder	measurement	setting	value
B1	glycan array binding signal (z-score)	[28]	1.11
same	glycan array binding signal (z-score)	[29]	-0.141
same	glycan array binding signal (z-score)	[30]	-0.087
